Results as given in publication PMC3720655.
No constants are given. Whether binding was seen depends on the method and setting. Binding seen in cells or lysates may run through a third protein. Some binding calls cover weakened binding; strength is not graded here. Tags and fused reporters may be left off the sequences shown.

Protein sequences, listed by entry. Tags and fused reporters are not part of them. Residues count along the entry.
UniProt P29317, residues 24-976: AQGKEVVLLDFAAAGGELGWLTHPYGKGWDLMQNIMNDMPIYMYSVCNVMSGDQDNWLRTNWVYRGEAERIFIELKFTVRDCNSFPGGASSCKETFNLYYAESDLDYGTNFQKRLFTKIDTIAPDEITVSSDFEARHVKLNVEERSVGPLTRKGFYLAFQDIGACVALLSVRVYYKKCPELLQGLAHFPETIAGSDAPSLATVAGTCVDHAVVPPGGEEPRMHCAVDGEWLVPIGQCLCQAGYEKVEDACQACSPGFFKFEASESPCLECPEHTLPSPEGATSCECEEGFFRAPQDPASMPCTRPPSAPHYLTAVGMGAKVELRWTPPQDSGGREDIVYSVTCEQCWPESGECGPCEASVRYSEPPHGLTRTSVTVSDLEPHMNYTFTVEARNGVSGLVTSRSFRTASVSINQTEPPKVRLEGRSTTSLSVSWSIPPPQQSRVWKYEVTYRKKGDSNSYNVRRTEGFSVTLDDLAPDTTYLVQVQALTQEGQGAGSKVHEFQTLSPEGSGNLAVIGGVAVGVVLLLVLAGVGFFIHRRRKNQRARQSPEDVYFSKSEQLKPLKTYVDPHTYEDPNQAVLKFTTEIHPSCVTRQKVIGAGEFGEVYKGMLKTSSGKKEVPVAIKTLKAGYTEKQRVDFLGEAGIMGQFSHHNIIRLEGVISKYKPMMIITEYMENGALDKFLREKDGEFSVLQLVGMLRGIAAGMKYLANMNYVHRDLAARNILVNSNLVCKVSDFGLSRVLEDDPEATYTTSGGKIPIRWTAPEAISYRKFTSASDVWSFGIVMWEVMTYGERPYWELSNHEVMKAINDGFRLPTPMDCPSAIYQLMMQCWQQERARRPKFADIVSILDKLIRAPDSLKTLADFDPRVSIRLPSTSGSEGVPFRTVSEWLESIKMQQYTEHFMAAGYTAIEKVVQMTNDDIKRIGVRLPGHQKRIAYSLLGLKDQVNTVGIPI
UniProt Q14573: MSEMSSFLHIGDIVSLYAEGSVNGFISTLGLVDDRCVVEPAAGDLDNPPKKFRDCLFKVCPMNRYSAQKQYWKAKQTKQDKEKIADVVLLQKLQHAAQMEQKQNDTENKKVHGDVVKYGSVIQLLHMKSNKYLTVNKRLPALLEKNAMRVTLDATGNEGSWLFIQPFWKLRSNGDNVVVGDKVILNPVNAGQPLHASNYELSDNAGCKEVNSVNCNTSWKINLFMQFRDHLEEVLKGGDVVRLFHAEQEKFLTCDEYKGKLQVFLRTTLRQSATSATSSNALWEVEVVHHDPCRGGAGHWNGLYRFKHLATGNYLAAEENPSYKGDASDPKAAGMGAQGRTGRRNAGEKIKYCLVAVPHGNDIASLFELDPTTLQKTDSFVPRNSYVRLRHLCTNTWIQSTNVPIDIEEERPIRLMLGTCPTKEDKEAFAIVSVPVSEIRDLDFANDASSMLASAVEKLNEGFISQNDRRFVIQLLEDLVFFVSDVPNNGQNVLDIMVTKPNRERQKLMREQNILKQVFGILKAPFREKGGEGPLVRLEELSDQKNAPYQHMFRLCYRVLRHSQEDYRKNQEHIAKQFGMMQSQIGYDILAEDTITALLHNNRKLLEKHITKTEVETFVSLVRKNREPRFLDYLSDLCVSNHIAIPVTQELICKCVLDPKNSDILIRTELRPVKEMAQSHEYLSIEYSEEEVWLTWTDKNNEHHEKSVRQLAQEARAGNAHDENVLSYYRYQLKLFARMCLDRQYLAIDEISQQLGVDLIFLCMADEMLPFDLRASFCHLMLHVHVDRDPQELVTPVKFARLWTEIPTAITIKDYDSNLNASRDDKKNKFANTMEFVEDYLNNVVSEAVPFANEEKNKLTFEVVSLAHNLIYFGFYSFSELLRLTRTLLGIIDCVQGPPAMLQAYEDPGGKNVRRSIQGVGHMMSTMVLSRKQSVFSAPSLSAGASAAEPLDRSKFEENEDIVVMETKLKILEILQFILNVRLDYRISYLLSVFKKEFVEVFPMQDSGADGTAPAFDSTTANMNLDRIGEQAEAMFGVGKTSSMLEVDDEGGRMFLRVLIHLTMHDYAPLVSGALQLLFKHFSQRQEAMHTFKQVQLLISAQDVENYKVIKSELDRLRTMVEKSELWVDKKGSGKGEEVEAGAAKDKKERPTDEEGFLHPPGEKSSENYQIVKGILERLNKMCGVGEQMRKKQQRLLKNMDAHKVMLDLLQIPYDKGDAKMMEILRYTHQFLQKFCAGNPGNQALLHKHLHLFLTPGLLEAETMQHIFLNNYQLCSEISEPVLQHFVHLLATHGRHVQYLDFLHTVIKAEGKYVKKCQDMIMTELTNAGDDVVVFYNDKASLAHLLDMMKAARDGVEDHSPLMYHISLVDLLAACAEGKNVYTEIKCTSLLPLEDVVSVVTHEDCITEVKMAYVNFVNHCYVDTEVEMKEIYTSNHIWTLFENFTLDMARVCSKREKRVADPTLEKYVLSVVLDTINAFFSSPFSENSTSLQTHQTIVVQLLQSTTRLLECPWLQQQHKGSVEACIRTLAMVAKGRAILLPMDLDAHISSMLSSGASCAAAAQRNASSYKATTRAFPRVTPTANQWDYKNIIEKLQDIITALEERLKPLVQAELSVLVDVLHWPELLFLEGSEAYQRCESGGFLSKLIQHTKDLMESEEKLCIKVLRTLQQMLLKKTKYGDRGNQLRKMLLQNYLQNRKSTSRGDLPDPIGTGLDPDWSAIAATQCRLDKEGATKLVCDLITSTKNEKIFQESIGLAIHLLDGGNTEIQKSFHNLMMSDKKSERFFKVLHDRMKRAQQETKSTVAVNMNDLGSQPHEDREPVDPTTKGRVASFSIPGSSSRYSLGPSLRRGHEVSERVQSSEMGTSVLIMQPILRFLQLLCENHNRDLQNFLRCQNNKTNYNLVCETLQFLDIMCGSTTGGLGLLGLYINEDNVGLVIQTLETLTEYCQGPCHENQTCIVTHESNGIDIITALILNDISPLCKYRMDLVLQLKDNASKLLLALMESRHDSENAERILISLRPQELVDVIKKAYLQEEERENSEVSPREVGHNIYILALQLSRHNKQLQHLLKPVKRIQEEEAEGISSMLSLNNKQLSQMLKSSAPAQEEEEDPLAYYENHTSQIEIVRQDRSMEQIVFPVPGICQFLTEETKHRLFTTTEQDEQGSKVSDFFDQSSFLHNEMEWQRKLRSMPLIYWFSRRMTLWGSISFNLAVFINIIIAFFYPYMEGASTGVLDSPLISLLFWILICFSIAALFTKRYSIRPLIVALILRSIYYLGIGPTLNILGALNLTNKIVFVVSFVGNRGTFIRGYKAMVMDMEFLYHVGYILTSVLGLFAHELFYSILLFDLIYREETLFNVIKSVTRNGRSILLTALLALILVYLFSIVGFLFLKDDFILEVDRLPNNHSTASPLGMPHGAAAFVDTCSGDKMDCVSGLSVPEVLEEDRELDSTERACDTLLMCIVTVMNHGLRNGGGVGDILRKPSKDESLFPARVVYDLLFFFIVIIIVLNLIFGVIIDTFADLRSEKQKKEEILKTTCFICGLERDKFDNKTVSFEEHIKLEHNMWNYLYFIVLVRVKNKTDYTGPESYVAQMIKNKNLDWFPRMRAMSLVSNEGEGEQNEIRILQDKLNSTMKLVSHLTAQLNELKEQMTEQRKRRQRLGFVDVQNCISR

T1: KIAA1199 (untagged, SW480 KIAA1199-Cl.18) (human) (UniProt Q8WUJ3)
T1 sequence: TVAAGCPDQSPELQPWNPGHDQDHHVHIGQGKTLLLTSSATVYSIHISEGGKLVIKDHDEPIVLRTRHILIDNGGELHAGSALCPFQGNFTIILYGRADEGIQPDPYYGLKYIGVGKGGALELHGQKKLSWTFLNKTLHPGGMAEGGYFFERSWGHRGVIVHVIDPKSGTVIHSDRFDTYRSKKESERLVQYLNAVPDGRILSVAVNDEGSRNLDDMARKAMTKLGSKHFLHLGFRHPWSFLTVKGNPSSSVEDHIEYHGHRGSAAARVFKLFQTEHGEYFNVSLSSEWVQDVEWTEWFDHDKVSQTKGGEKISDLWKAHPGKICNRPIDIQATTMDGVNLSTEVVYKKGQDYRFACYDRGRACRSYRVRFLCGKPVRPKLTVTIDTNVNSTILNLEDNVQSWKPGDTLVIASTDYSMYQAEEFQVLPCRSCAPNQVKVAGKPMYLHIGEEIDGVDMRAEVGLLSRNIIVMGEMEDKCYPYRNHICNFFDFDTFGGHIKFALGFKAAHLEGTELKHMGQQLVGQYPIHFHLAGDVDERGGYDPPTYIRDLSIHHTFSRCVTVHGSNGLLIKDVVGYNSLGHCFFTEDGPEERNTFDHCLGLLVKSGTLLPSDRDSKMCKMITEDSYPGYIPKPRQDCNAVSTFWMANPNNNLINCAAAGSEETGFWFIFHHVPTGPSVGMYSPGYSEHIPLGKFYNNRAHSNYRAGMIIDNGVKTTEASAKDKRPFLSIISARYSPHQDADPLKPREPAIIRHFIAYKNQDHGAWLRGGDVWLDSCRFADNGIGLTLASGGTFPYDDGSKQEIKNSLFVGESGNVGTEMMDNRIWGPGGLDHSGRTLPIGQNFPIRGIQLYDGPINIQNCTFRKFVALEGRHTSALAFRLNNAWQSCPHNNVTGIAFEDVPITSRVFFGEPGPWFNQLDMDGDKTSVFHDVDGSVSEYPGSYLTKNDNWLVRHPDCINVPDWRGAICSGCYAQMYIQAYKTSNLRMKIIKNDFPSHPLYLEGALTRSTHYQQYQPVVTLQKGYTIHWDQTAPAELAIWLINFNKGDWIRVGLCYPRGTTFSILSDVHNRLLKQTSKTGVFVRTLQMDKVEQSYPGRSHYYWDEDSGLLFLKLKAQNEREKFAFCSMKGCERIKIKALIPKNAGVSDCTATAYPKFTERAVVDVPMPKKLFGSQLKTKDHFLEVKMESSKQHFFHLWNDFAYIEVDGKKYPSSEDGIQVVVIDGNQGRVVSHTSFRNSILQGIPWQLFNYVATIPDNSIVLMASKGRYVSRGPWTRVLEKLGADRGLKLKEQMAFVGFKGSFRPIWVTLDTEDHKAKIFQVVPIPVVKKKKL

B1: KIAA1199 (untagged, SW480 KIAA1199-Cl.18) (protein, UniProt Q8WUJ3 31-1361)
chain: T1 sequence

Legend:
Experiment in all cases: co-IP; validation IP and Western blot; input KIAA1199-Cl.18 extract; anti-KIAA1199 antibody or antibody against the endogenous partner, Protein G or A/G beads; IP lysis buffer 150 mM NaCl, 1% NP-40, 50 mM Tris-HCl pH 8.0, overnight 4°C
[1] = biological target: T1, KIAA1199 (untagged, SW480 KIAA1199-Cl.18) (human)
[2] = biological target: EPHA2 (human (endogenous in SW480)) (UniProt P29317)
[3] = biological target: ITPR3 (human (endogenous in SW480)) (UniProt Q14573)

Molecule	binding [1]	binding [2]	binding [3]
ITPR3 (from UniProt Q14573 1-2671) (receptor)	binds weakly	–	–
EPHA2 (from UniProt P29317 24-976) (receptor)	binds weakly	–	–
B1	–	binds weakly	binds weakly
